Data published in publication doi:10.1101/2023.01.12.523351.
Results are given in words; binding and its absence hold for the method and conditions named. In cells and extracts the contact can be indirect.

The chains behind the UniProt entries cited, without tags or fusion partners.
UniProt P53566: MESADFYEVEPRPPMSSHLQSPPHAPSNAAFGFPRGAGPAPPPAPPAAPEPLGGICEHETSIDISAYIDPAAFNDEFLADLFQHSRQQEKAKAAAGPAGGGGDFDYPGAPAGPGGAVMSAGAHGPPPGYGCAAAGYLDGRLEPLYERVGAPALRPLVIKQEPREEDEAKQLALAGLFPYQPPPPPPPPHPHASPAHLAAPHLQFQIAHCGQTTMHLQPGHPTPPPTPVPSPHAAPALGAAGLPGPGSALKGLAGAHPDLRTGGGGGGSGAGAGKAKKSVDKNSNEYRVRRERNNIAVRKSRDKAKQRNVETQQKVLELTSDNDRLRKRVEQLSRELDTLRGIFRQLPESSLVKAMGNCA
UniProt Q9R1E0: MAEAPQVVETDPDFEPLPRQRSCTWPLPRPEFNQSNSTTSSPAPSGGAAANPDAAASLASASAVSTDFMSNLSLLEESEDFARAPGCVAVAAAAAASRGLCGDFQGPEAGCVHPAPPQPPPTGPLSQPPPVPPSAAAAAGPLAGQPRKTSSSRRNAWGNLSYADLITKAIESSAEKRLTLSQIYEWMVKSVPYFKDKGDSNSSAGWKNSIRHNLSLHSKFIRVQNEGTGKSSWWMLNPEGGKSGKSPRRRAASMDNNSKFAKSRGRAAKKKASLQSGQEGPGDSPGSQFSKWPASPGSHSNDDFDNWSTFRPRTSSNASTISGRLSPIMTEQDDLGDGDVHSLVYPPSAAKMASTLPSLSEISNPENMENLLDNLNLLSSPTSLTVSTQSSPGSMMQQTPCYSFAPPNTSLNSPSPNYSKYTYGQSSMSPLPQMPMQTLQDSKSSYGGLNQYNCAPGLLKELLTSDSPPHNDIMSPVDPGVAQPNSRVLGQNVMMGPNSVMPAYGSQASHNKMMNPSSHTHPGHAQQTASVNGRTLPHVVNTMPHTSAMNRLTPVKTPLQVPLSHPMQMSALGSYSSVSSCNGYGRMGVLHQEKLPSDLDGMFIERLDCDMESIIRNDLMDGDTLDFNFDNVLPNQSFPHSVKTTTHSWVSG
UniProt Q62432: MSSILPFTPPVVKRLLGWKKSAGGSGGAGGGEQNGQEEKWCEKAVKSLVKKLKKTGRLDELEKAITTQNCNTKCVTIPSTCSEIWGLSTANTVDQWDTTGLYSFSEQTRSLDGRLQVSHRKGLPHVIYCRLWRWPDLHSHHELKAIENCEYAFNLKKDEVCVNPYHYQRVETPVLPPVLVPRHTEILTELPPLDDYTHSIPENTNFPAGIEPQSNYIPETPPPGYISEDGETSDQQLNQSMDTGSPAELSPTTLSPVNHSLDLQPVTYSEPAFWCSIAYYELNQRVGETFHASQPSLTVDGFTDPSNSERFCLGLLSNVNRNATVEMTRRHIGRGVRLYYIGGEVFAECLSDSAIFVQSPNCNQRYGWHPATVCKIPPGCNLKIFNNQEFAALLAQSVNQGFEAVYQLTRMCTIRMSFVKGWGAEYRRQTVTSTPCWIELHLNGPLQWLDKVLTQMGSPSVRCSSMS
UniProt Q8BUN5: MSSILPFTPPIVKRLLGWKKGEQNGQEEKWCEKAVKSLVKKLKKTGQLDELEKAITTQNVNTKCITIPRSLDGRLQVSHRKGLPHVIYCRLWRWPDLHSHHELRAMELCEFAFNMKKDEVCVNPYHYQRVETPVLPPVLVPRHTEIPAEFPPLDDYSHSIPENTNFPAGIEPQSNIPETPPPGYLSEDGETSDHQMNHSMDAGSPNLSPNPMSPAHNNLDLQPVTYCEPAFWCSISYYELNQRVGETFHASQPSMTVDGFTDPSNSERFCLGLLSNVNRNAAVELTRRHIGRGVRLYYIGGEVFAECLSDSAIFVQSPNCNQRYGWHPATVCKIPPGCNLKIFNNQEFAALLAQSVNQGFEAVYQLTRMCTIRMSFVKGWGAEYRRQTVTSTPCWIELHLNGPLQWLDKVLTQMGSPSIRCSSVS

Columns and labels:
[1] = target: C/EBPα (mouse (endogenous in AML12)) (UniProt P53566); experiment: co-IP
[2] = target: Forkhead box O1 (FOXO1) (mouse (endogenous in AML12)) (UniProt Q9R1E0); experiment: co-IP

Row | binding [1] | binding [2] | Substance
1 | no binding | no binding | SMAD2 (from UniProt Q62432 1-467)
2 | no binding | – | SMAD3 (from UniProt Q8BUN5 1-425)
